Experimental data taken from the supplement of paper PMC4604168 (melanoma cell lines).
Some of the results follow. Many values rest on one well or one pass, so single values are uncertain.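 Cells were imaged in 1,536-well plates, and nuclei stained with an antibody against cleaved PARP were counted against all DNA-stained nuclei to give the apoptosis fraction. Screening doses were chosen to leave most cells alive, and resting and induced cleaved-PARP levels differ strongly between cell lines.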

Tested on: SkMel30
Experiment: cleaved PARP positive nuclei fraction relative to DMSO control; melanoma cells; higher = more apoptosis
Settings: library dose: low library concentration; 72 h

| SMILES | cleaved PARP positive nuclei fraction [%] |
| --- | --- |
| CCc1ccc(CCOc2ccc(CC3SC(=O)NC3=O)cc2)nc1 (stereo unspecified) [pioglitazone] + CCCCCCCCCCCC1=C(O)C(=O)C=C(O)C1=O [Embelin] (first compound 2 µM, partner dose 1.2 µM) | 17 |
| CN(C)S(=O)(=O)c1ccc2c(c1)/C(=C/c1cc3c([nH]1)CCCC3)C(=O)N2 + c1cc(-c2cnn3cc(-c4ccc(OCCN5CCCCC5)cc4)cnc23)ccn1 [Dorsomorphin] (first compound 0.4 µM, partner dose 0.4 µM) | 70.4 |
| O=C(Nc1ccccc1)c1cc([N+](=O)[O-])ccc1Cl + O=c1cc(-c2cccc3c2Sc2ccccc2S3)oc(N2CCOCC2)c1 [KU55933] (first compound 2 µM, partner dose 1 µM) | 119 |
| COc1cc2ncnc(Nc3ccc(Oc4ccccc4)cc3)c2cc1OC + O=C(O)C(=O)Nc1sc2c(c1C(=O)O)CCNC2 [TCS401] (first compound 2 µM, partner dose 1.66667 µM) | 19.6 |
| COc1ccc(-c2ccc3c(N4CCOCC4)nc(N4C[C@@H](C)O[C@@H](C)C4)nc3n2)cc1CO + Oc1nc(-c2ccc(C(F)(F)F)cc2)nc2c1CSCC2 [XAV939] (first compound 0.02 µM, partner dose 2 µM) | 41.4 |
| CN(NC(=O)CC(=O)NN(C)C(=S)c1ccccc1)C(=S)c1ccccc1 + CCc1ccc(CCOc2ccc(CC3SC(=O)NC3=O)cc2)nc1 [pioglitazone] (first compound 0.006 µM, partner dose 2 µM) | 14.2 |
| CCc1ccc(CCOc2ccc(CC3SC(=O)NC3=O)cc2)nc1 (stereo unspecified) [pioglitazone] + Cc1cc([N+](=O)[O-])ccc1NS(=O)(=O)c1cc(Cl)ccc1Cl [FH535] (first compound 2 µM, partner dose 1 µM) | 100 |
| CCN(CC)CCCCNc1ncc2cc(-c3cc(OC)cc(OC)c3)c(NC(=O)NC(C)(C)C)nc2n1 + O=c1cc(-c2cccc3c2Sc2ccccc2S3)oc(N2CCOCC2)c1 [KU55933] (first compound 0.1 µM, partner dose 1 µM) | 321 |
| COc1ccc(COc2ccc(Cc3cnc(N)nc3N)cc2OC)cc1 + O=C1NC(=O)/C(=C/c2ccc(-c3ccc(F)cc3O)o2)S1 [AS252424] (first compound 1 µM, partner dose 1 µM) | 33.1 |
| Oc1cc(-c2nc(-c3ccccc3)[nH]c2-c2ccncc2)ccc1Cl + Cn1cc(/C=C2\C(=O)Nc3cccnc32)c2ccccc21 [GW441756] (first compound 0.2 µM, partner dose 0.4 µM) | 113 |
| NCC(=O)Nc1ccc(-n2nc(C(F)(F)F)cc2-c2ccc3c(ccc4ccccc43)c2)cc1 + Oc1cc(-c2nc(-c3ccccc3)[nH]c2-c2ccncc2)ccc1Cl [L779450] (first compound 1 µM, partner dose 0.2 µM) | 78.1 |
| O=S(=O)(c1ccccc1)N(CC(F)(F)F)c1ccc(C(O)(C(F)(F)F)C(F)(F)F)cc1 + CC(C)CCN1c2nc(Nc3cc(F)c(O)c(F)c3)ncc2N(C)C(=O)C1C [BID1870] (first compound 1.4 µM, partner dose 0.2 µM) | 31.6 |
| Cn1cc(/C=C2\C(=O)Nc3cccnc32)c2ccccc21 + CC(C)CCN1c2nc(Nc3cc(F)c(O)c(F)c3)ncc2N(C)C(=O)C1C [BID1870] (first compound 0.4 µM, partner dose 0.2 µM) | 28.9 |
| O=C1NC(=O)/C(=C/c2ccc(-c3ccc(F)cc3O)o2)S1 + COc1cc(N2CCC(N3CCN(C)CC3)CC2)ccc1Nc1ncc(Cl)c(Nc2ccccc2S(=O)(=O)C(C)C)n1 [NVP-TAE684] (first compound 1 µM, partner dose 0.08 µM) | 41.8 |
| N#Cc1c(O)c2c(-c3ccc(-c4ccccc4O)cc3)csc2[nH]c1=O + CCN(CC)CCCCNc1ncc2cc(-c3cc(OC)cc(OC)c3)c(NC(=O)NC(C)(C)C)nc2n1 [PD173074] (first compound 2 µM, partner dose 0.1 µM) | 472 |
| CN(C)S(=O)(=O)c1ccc2c(c1)/C(=C/c1cc3c([nH]1)CCCC3)C(=O)N2 + COc1ccc2c(c1)CCC1C2CCC2(C)C(NCCCCCCN3C(=O)C=CC3=O)CCC12 [U73122] (first compound 0.4 µM, partner dose 0.4 µM) | 169 |

Reformatted field by field: part of the list above
Cn1cc(/C=C2\C(=O)Nc3cccnc32)c2ccccc21 + CC(C)CCN1c2nc(Nc3cc(F)c(O)c(F)c3)ncc2N(C)C(=O)C1C [BID1870] (first compound 0.4 µM, partner dose 0.2 µM)
  cleaved PARP positive nuclei fraction [%]: 28.9
O=C1NC(=O)/C(=C/c2ccc(-c3ccc(F)cc3O)o2)S1 + COc1cc(N2CCC(N3CCN(C)CC3)CC2)ccc1Nc1ncc(Cl)c(Nc2ccccc2S(=O)(=O)C(C)C)n1 [NVP-TAE684] (first compound 1 µM, partner dose 0.08 µM)
  cleaved PARP positive nuclei fraction [%]: 41.8
